Laboratory results reported in PubChem BioAssay AID1898 (National Center for Advancing Translational Sciences (NCATS), 2009).
Inconclusive means that the source gave no clear call. Such entries were picked first, then a sample of the others. Potencies beside an inconclusive call are fits to weak or partial responses and may not hold up. Active and inactive are the calls of the source. The call rests on the fitted dose curve; in most records, active means well fitted curve in the direction sought with a large enough effect; inconclusive means small, poorly fitted or top-dose-only effect, or another doubt; inactive means no such curve, though single readings can be large or run the other way.

experiment: Secondary assay for Activators of Human Pyruvate Kinase M2 isoform - Cell Titer Glo cytotoxicity assay; conditions: HeLa viability, CellTiter-Glo ATP luminescence, 24 h; activity change, negative = cytotoxicity: at 57.5 µM (top of the series); on activity change, negative = cytotoxicity: % of control where 0% means no effect
Protocol: NIH Chemical Genomics Center [NCGC] Matthew G. Vander Heiden, M.D., Ph.D. [Harvard Medical School, 77 Avenue Louis Pasteur, Boston, MA 02115] MLPCN Grant: 1 R03 MH085679-01 NCGC Assay Overview: We have identified a series of activators of the M2 isoform of human pyruvate kinase. The assay described here examines the cytotoxicity of these compounds by measuring the total ATP content of Hela cells after 24 hrs of exposure to compound.
Assay Protocol: 500 Hela cells/ 4ul in media (DMEM with high glucose, 10% FBS, 1x Pen Strep, 1x NEAA) were dispensed into a white solid 1536-microwell plate with a Thermo Multidrop. The plates were incubated at 37 degrees Celsius for 24 hours. The cells were then treated with compounds using the Kalypsys pin tool, delivering 23 nl of test compounds and the control doxorubicin. The plates were then incubated for an additional 24 hours at 37 degrees C after which 4 ul of Promega Cell-Titer Glo was dispensed using the Thermo Multidrop. The plates were incubated at room temperature for 10 min before reading luminescence on the Perkin Elmer ViewLux with images collected with 2x binning and a 5 sec exposure time.

Row | Compound | Potency | activity change, negative = cytotoxicity
1 | O=S(=O)(c1ccc2c(c1)OCCO2)N1CCN(S(=O)(=O)c2c(F)cccc2F)CC1 | inconclusive: 0.0011 µM [falling, full curve, poor fit] | 
2 | O=S(=O)(c1ccc2c(c1)OCCO2)N1CCN(S(=O)(=O)c2ccccc2F)CC1 |  | inactive: -5.92%
3 | CCc1cc2c(s1)c1cnn(Cc3ccccc3F)c(=O)c1n2C | inconclusive: 39.8 µM [falling, single point] | 
4 | CC(=O)Nc1cc2c(s1)c1cnn(Cc3ccccc3F)c(=O)c1n2C |  | inactive: 1.59%
5 | O=C(c1ccc2c(c1)OCCO2)N1CCN(S(=O)(=O)c2c(F)cccc2F)CC1 | inconclusive: 39.8 µM [falling, single point] | 
6 | COc1cc(C2C3=C(CCCC3=O)Nc3c2c(C)nn3-c2cccc(C)c2)cc(OC)c1O (stereo not drawn) | inconclusive: 39.8 µM [falling, single point] | 
7 | O=S(=O)(c1ccc(Cl)cc1)N1CCN(S(=O)(=O)c2ccc3c(c2)OCCO3)CC1 | inconclusive: 39.8 µM [falling, single point] | 
8 | O=S(=O)(NC1CCN(S(=O)(=O)c2c(F)cccc2F)C1)c1ccc2c(c1)OCCO2 (stereo not drawn) | inconclusive: 39.8 µM [falling, single point] | 
9 | CC(C)c1cc2c(s1)c1cnn(Cc3ccccc3F)c(=O)c1n2C | inconclusive: 35.5 µM [falling, partial curve, poor fit] | 
10 | O=S(=O)(c1ccc2c(c1)OCCO2)C1CCN(S(=O)(=O)c2c(F)cccc2F)CC1 | inconclusive: 25.1 µM [rising, single point] | 
11 | C[C@@H]1CN(S(=O)(=O)c2c(F)cccc2F)CCN1S(=O)(=O)c1ccc2c(c1)OCCO2 | inconclusive: 25.1 µM [falling, partial curve, poor fit] | 
12 | CCOC(=O)c1c(-c2ccccc2)csc1NC(=O)CSc1nnnn1C | inconclusive: 39.8 µM [falling, single point] | 
13 | COc1ccc(C(=O)/C=C/C(=O)N(CC(=O)NC2CCCCC2)Cc2ccccc2)c(O)c1 | inconclusive: 39.8 µM [falling, single point] | 
14 | COc1ccc(S(=O)(=O)N2CCN(S(=O)(=O)c3c(F)cccc3F)CC2)cc1 | inactive | 
15 | COc1cc(NC(=O)CSc2nnc3c(n2)[nH]c2ccc(S(=O)(=O)NC(C)C)cc23)cc(OC)c1OC |  | inactive: -17.5%
16 | Cc1ccc(C)c2[nH]c(=O)c(CN(Cc3ccco3)C(=O)Nc3ccccc3)cc12 | inconclusive: 35.5 µM [falling, single point] | 
17 | Cc1cccc(N2CCN(C(=O)c3c(C)nn(Cc4ccccc4Cl)c3C)CC2)c1C | inconclusive: 15.8 µM [falling, partial curve] | 

Some of the entries above, reformatted.
O=S(=O)(c1ccc(Cl)cc1)N1CCN(S(=O)(=O)c2ccc3c(c2)OCCO3)CC1
  Potency: inconclusive: 39.8 µM [falling, single point]
O=S(=O)(NC1CCN(S(=O)(=O)c2c(F)cccc2F)C1)c1ccc2c(c1)OCCO2 (stereo not drawn)
  Potency: inconclusive: 39.8 µM [falling, single point]
CC(C)c1cc2c(s1)c1cnn(Cc3ccccc3F)c(=O)c1n2C
  Potency: inconclusive: 35.5 µM [falling, partial curve, poor fit]

Next results follow.

Row | Compound | Potency | activity change, negative = cytotoxicity
18 | CCOC(=O)c1c(CNCc2ccccc2F)c2sc(C)cc2n1C | inconclusive: 10 µM [falling, single point] | 
19 | COc1cccc(-c2nn(C)c3sc(C(=O)NCc4ccc(C)o4)cc23)c1 | inconclusive: 15.8 µM [falling, partial curve] | 
20 | Cn1c(=O)[nH]c(=O)c2c1nc(SCC(=O)Nc1ccccc1)n2Cc1ccccc1 | inconclusive: 17.8 µM [falling, partial curve, poor fit] | 
21 | CC(C)(C)c1ccc(CN2N=Nc3ccccc3S2(=O)=O)cc1 | inconclusive: 31.6 µM [falling, single point] | 
22 | O=S(=O)(c1ccc2c(c1)OCO2)N1CCN(S(=O)(=O)c2c(F)cccc2F)CC1 | inconclusive: 0.178 µM [falling, full curve, poor fit] | 
23 | Cn1c2ccsc2c2ncn(Cc3ccccc3F)c(=O)c21 | inconclusive: 39.8 µM [falling, single point] | 
24 | Cc1ccc(NS(=O)(=O)c2cc3c4c(cccc4c2)C(=O)NC3=O)cc1C | inconclusive: 31.6 µM [falling, partial curve, poor fit] | 
25 | Cc1ccc(NS(=O)(=O)c2ccc3c(c2)CCC(=O)N3)cc1C | inconclusive: 35.5 µM [falling, single point] | 
26 | CCn1c2cc(C)sc2c2cnn(Cc3ccccc3F)c(=O)c21 |  | inactive: -21.6%
27 | O=S(=O)(c1ccc2ccccc2c1)N1CCN(S(=O)(=O)c2c(F)cccc2F)CC1 |  | inconclusive: -44.6%
28 | CCN1C(=O)c2cccc3c(S(=O)(=O)Nc4ccccc4)ccc1c23 | inconclusive: 10 µM [falling, full curve, poor fit] | 
29 | CC1(C)CCc2cc(S(=O)(=O)N3CCN(S(=O)(=O)c4c(F)cccc4F)CC3)ccc2O1 | inactive | 
30 | Cc1ccc(NC(=O)Cn2sc3nc(C)cc(C)c3c2=O)c(Cl)c1 | inconclusive: 39.8 µM [falling, single point] | 
31 | O=S(=O)(c1ccc2c(c1)OCCCO2)N1CCN(S(=O)(=O)c2c(F)cccc2F)CC1 | inconclusive: 11.2 µM [falling, single point] | 
32 | CC(O)c1nc2ccccc2n1Cc1nnc(-c2ccc(Cl)cc2)o1 (stereo not drawn) |  | inactive: 0%
33 | COc1ccc(S(=O)(=O)N2CCN(S(=O)(=O)c3ccc4c(c3)OCCO4)CC2)cc1 | inconclusive: 39.8 µM [falling, single point] | 
